Experimental data taken from PubChem BioAssay AID540256 (National Center for Advancing Translational Sciences (NCATS), 2011).
Among all 300,000 compounds or so, about 3,700 (1.2%) were called active. Inconclusive means that the source gave no clear call. Such entries were picked first, then a sample of the others. Calls follow the shape of the full dose curve; tested in HEK293 cells. A potency beside an inconclusive call is a rough fit, not a confirmed value.

Experiment: qHTS for Inhibitors of binding or entry into cells for Lassa Virus; also: nearly all actives have a fitted effect of over 50% in size
Conditions: Lassa virus pseudotype entry inhibition, cell reporter; activity change, negative = inhibition: at 37.9 µM (top of the series) unless noted
% is scaled to controls: 0 for no effect and ±100 for the full control effect; potency is read from the fitted curve at half-maximal effect.

| SMILES | Potency | activity change, negative = inhibition |
| --- | --- | --- |
| CC(=O)NCC(=O)OCC(=O)Nc1nc(-c2ccccc2)cs1 | inconclusive: 2.51 µM [activator, partial curve, poor fit] | – |
| COC(=O)c1ccccc1C[C@]1(C(=O)OC)C=C[C@H](C)[C@@H](c2ccccc2)N1C(=O)C(F)(F)F | inconclusive: 0.422 µM [activator, partial curve, poor fit] | – |
| OC(CNCCc1ccc(C(F)(F)F)cc1)COc1cccc2ccccc12 (stereo not given) | inconclusive: 23.1 µM [inhibitor, single point] | – |
| COCc1cc(=O)[nH]c(SCC(=O)c2ccccc2)n1 | inconclusive: 11.2 µM [activator, single point] | – |
| CNC(=O)c1ccc(Nc2nnc(C)c3ccccc23)cc1 | – | inactive: -0.0023% |
| CN(CCC1CCCCO1)C(=O)CCc1nnc(Cc2c[nH]c3ccccc23)o1 (stereo not given) | inconclusive: 7.94 µM [inhibitor, partial curve, poor fit] | – |
| CCc1cnc2c(c1SCC(=O)NCc1ccc(C)cc1)c(=O)n(C)c(=O)n2C | – | inactive: -14.7% [at 46.1 µM] |
| Cc1onc(-c2ccccc2Cl)c1C(=O)NCc1ccco1 | inconclusive: 29.1 µM [inhibitor, single point] | – |
| C/C(=N\NC(=O)c1c(Cl)cnn1C)c1cccc(NC(=O)COc2ccccc2)c1 | inconclusive: 22.4 µM [inhibitor, single point] | – |
| Cc1ccc(SCc2cc(=O)[nH]c(N3CCN(Cc4ccc5c(c4)OCO5)CC3)n2)cc1 | – | inactive: 8.2% |
| COc1ccc2ccccc2c1/C=N/NC(=O)c1cccc(Br)c1 | – | inactive: -11.1% |
| COc1cccc(CNC(=O)CCCn2ccc3cc(S(=O)(=O)N4CCCC4)ccc32)c1 | inconclusive: 10 µM [inhibitor, partial curve] | – |
| COc1ccc(S(=O)(=O)N(CC(=O)N/N=C/c2cccs2)c2cc(C)cc(C)c2)cc1OC | inconclusive: 6.51 µM [inhibitor, partial curve, poor fit] | – |
| O=C1CSC(c2ccc(F)cc2)N1c1nc2ccccc2s1 (stereo not given) | inconclusive: 4.61 µM [activator, full curve] | – |
| CC(C)CC(=O)N1CCN(Cc2ccc(Cl)cc2)CC1 | inconclusive: 35.5 µM [inhibitor, single point] | – |
| COc1ccc(NC(=O)C(Cc2cc(C)cc(C)c2)C(C)C(=O)O)cc1 (stereo not given) | – | inactive: 12% [at 46.1 µM] |
| COc1cc(Cl)c(C)cc1NC(=O)c1cc2c(=O)oc3ccccc3c2s1 | – | inactive: 8.66% [at 46.1 µM] |
| Cc1cccc(C(=O)NC2CC3CCCC(C2)N3S(=O)(=O)c2ccccc2)c1 (stereo not given) | active: 13 µM | – |
| CCN(CC)c1ccc(/C=C(\C#N)C(=O)c2ccc(Br)cc2)cc1 | inconclusive: 12.6 µM [inhibitor, single point] | – |
| CCOc1ccc(C(=O)OCc2cc(=O)n3nc(C4CC4)sc3n2)cc1 | – | inactive: 11.7% [at 46.1 µM] |
| O=C(NC(=S)Nc1ccc(N2CCOCC2)cc1)c1cccc(Cl)c1Cl | – | inactive: 16.3% [at 46.1 µM] |
| O=C(CN1C(=O)CSC1=O)NC1CCCCC1 | – | inactive: 7.25% |
| COc1ccc(N2CCN(CCCNC(=O)c3cnn(-c4ccc(C)cc4)c3-n3cccc3)CC2)cc1 | – | inactive: 10.2% [at 46.1 µM] |
| CCc1ccc(-n2cc(-c3ccc(F)cc3)[n+]3c2SCCC3)cc1 | inconclusive: 10 µM [inhibitor, partial curve, poor fit] | – |

| SMILES | Potency | activity change, negative = inhibition |
| --- | --- | --- |
| O=c1[nH][nH]c(=O)c2c(NS(=O)(=O)c3ccccc3)cccc12 | inconclusive: 35.5 µM [activator, single point] | – |
| CCOC(=O)c1ccc(NC(=S)N(CCCN2CCN(CC)CC2)Cc2cccs2)cc1 | active: 10 µM | – |
| O=C(NCc1ccccc1)C(=O)NCC(c1cccs1)S(=O)(=O)c1cccs1 (stereo not given) | inconclusive: 5.62 µM [activator, single point] | – |
| Cc1ccc(C(=O)Nc2ccc3c(c2)OCCO3)cc1S(=O)(=O)N1CCOCC1 | inconclusive: 0.398 µM [activator, partial curve, poor fit] | – |
| O=C1C(=C(c2ccccc2)c2ccccc2)Nc2ccccc21 | inconclusive: 14.1 µM [inhibitor, partial curve, poor fit] | – |
| Cc1cccc(-c2nc(CSCC(=O)N3CCN(c4ccccn4)CC3)c(C)o2)c1 | inconclusive: 29.1 µM [inhibitor, partial curve, poor fit] | – |
| O=C(Nc1ccccc1Cl)N1CCN(C/C=C/c2ccccc2)CC1 | inconclusive: 20 µM [inhibitor, single point] | – |
| Cc1ccc(-c2ccc(SCC(=O)Nc3nonc3C)nn2)cc1 | – | inactive: -0.713% |
| CCN(CC)CCCNc1ncnc2scc(-c3ccc(F)cc3)c12 | inconclusive: 0.708 µM [inhibitor, single point] | – |
| CN(C)c1ccc(C(CNC(=O)c2ccccc2Cl)N2CCCC2)cc1 (stereo not given) | – | inactive: 3.45% [at 46.1 µM] |
| COc1ccc(CNCCc2c(C)[nH]c3ccc(OC(F)(F)F)cc23)c(OC)c1 | inconclusive: 15.8 µM [inhibitor, partial curve, poor fit] | – |
| Cc1ccc(C)c2c1[nH]c1ccc([N+](=O)[O-])cc12 | inconclusive: 7.94 µM [inhibitor, partial curve, poor fit] | – |
| CCn1ccnc1CN(C)Cc1cn(C)nc1-c1ccccc1F | – | inactive: 0.994% [at 46.1 µM] |
| CCc1c(C)nc2c(-c3ccccc3OC)c(C)[nH]n2c1=O | inconclusive: 35.5 µM [inhibitor, partial curve, poor fit] | – |
| CCOc1ccc(NC(=O)N(Cc2cn(CC)c3ccccc23)C2CCCCCC2)cc1 | inconclusive: 35.5 µM [inhibitor, single point] | – |
| COC(=O)c1c(NC(=O)CS(=O)(=O)c2ccccc2)sc(C)c1C | – | inactive: -11% |
| CCNC(=O)NC(=O)C(C)OC(=O)c1c(C)nn(Cc2ccccc2)c1Cl (stereo not given) | inconclusive: 35.5 µM [inhibitor, single point] | – |
| CO/N=C(\c1nonc1N)N1CCN(c2ccc(Cl)cc2[N+](=O)[O-])CC1 | inconclusive: 8.91 µM [inhibitor, partial curve, poor fit] | – |
| COc1ccc(OCCNC(=O)CSc2ccc(C(F)(F)F)cc2[N+](=O)[O-])cc1 | inconclusive: 0.316 µM [inhibitor, partial curve, poor fit] | – |
| CCN1C(=O)S/C(=C\c2ccc(N3CCOCC3)cc2C)C1=O | inconclusive: 0.517 µM [activator, full curve] | – |
| Cc1nc(N)sc1C(=O)NN | – | inactive: -6.58% |
| CCN(CC)CCCNC(=O)c1ccc(N2CCCCC2)c(NS(=O)(=O)c2ccc(C)cc2)c1 | – | inactive: 10.6% |
| Cn1ncc(N=Cc2ccccc2O)c1C(=O)N1CCOCC1 | – | inactive: 1.07% |
| CC(C)S(=O)(=O)N1CCCC(C(=O)c2cccc(Cl)c2)C1 (stereo not given) | inconclusive: 12.6 µM [inhibitor, partial curve, poor fit] | – |

Among those listed so far, these contain a nitro group on carbon.

| SMILES | Potency | activity change, negative = inhibition |
| --- | --- | --- |
| Cc1ccc(C)c2c1[nH]c1ccc([N+](=O)[O-])cc12 | inconclusive: 7.94 µM [inhibitor, partial curve, poor fit] | – |
| CO/N=C(\c1nonc1N)N1CCN(c2ccc(Cl)cc2[N+](=O)[O-])CC1 | inconclusive: 8.91 µM [inhibitor, partial curve, poor fit] | – |
| COc1ccc(OCCNC(=O)CSc2ccc(C(F)(F)F)cc2[N+](=O)[O-])cc1 | inconclusive: 0.316 µM [inhibitor, partial curve, poor fit] | – |

The results go on.

| SMILES | Potency | activity change, negative = inhibition |
| --- | --- | --- |
| Cc1ccc(N2C(=O)c3n[nH]c(C)c3C2c2ccccc2Cl)cc1 (stereo not given) | – | inactive: -20% [at 46.1 µM] |
| O=C(CN1C(=O)c2ccccc2S1(=O)=O)Nc1ccc(S(=O)(=O)Nc2ncccn2)cc1 | – | inactive: 1.98% |
| CCOC(=O)c1c(-c2ccccc2)oc2ccc(O)c(CN3CCOCC3)c12 | inconclusive: 22.4 µM [inhibitor, single point] | – |
| COc1ccc(NC(=O)c2ncn(-c3ccccc3)n2)cc1Cl | – | inactive: -0.177% [at 46.1 µM] |
| CCCC(=O)Nc1nnc(SCC)s1 | – | inactive: 10.8% |
| Cc1cccc2sc(NC(=O)CCNS(=O)(=O)c3cccs3)nc12 | – | inactive: -11.4% |
| N#CC1=C(N)C(C#N)(C#N)C(c2cccnc2)C2CN(C(=O)OCc3ccccc3)CC=C12 (stereo not given) | inconclusive: 35.5 µM [inhibitor, single point] | – |
| CC(C)(C)c1ccc(-c2n[nH]c(=S)n2C2CCCC2)cc1 | inconclusive: 13 µM [inhibitor, partial curve, poor fit] | – |
| O=C(O)c1ccccc1N/N=C\c1ccnc2ccccc12 | inconclusive: 2.24 µM [inhibitor, full curve, poor fit] | – |
| N=C1C(c2nc3ccccc3s2)=C(O)CN1CCCO | inconclusive: 35.5 µM [activator, partial curve, poor fit] | – |
| O=C(Nc1ccc(Cl)cc1)Nc1nc(-c2sccc2Br)cs1 | inconclusive: 22.4 µM [inhibitor, single point] | – |
| Cc1cc(C)cc(C(=O)NCCc2csc(-c3ccc(C(F)(F)F)cc3)n2)c1 | – | inactive: -17.4% [at 46.1 µM] |
| CCc1ccccc1S(=O)(=O)Cc1ccc(C(=O)NCCc2ccc(C)cc2)o1 | inconclusive: 15.8 µM [inhibitor, single point] | – |
| CSc1snc(SCC(N)=O)c1C#N | – | inactive: 10.2% |
| OCCNc1ncnc2c1sc1nc(N3CCOCC3)c3c(c12)CCC3 | inconclusive: 35.5 µM [inhibitor, single point] | – |
| COc1ccc(NC(=S)NNc2ccc([N+](=O)[O-])cc2S(=O)(=O)Nc2ccc(C)cc2C)cc1 | inconclusive: 14.1 µM [inhibitor, single point] | – |
| CC(Sc1nc2cc([N+](=O)[O-])ccc2n1-c1cccc(C(F)(F)F)c1)C(=O)NC(N)=O (stereo not given) | inconclusive: 3.55 µM [inhibitor, partial curve, poor fit] | – |
| Cc1ccc(S(=O)(=O)N2CCN(C(=O)c3ccccc3OCc3c(C)noc3C)CC2)cc1C | inconclusive: 35.5 µM [inhibitor, single point] | – |
| CCOc1ncccc1C(=O)N1CCN(c2cccc(C)c2C)CC1 | inconclusive: 0.891 µM [inhibitor, full curve, poor fit] | – |
| Fc1ccc(-c2cc(-c3nc(-c4ccc(Cl)cc4)no3)[nH]n2)cc1 | – | inactive: 19.2% [at 46.1 µM] |
| CCCCCCn1c(=O)c(Cc2ccccc2)c(O)c2ccccc21 | inconclusive: 35.5 µM [activator, single point] | – |
| COc1ccc(-c2csc3nc(C)n(-n4cccc4)c(=O)c23)cc1 | inconclusive: 12.6 µM [inhibitor, partial curve, poor fit] | – |
